According to PubChem BioAssay AID540256 (National Center for Advancing Translational Sciences (NCATS), 2011):
Screen size: about 300,000 compounds; about 3,700 (1.2%) were called active. The inconclusive results got no clear call from the source; some entries with a clear call stand among them for comparison. Calls follow the shape of the full dose curve; tested in HEK293 cells. Where the call is inconclusive, the potency comes from a doubtful curve fit.

assay: qHTS for Inhibitors of binding or entry into cells for Lassa Virus; conditions: Lassa virus pseudotype entry inhibition, cell reporter; series mostly up to 37.9 µM; also: nearly all actives have a fitted effect of over 50% in size
Potency is read from the fitted curve at half-maximal effect.

Row | Compound | Potency
1 | CCOC(=O)Cn1c(=O)n(CC2CCCO2)c2nc(-c3cccc(C)c3)nc(C(N)=O)c21 (stereo not given) | inactive
2 | Cc1nc(N2CCN(C(=O)c3cccs3)CC2)c2c3c(sc2n1)CCCC3 | inconclusive: 31.6 µM [inhibitor, single point]
3 | O=C(N/N=C\c1ccc(COc2ccc([N+](=O)[O-])cc2)o1)c1cccc(Cl)c1 | inconclusive: 35.5 µM [inhibitor, single point]
4 | Fc1cccc(Oc2nc3ccccc3n3cccc23)c1 | inactive
5 | CCN1CCN(C(=S)Nc2sc(C)c(-c3ccccc3)c2C(=O)OC)CC1 | inconclusive: 35.5 µM [inhibitor, single point]
6 | Cc1cc(C)c(OCCCCN(C)C)c(Br)c1 | inactive
7 | COC(=O)c1ccc(/C=N/Nc2nc(C)c(C)s2)cc1 | inconclusive: 31.6 µM [inhibitor, single point]
8 | O=C(c1ccc(Cl)cc1)N1CCn2c1nc1ccccc12 | inactive
9 | CC1CCc2c(sc3nc(CN4CCOCC4)nc(NS(=O)(=O)c4cccc([N+](=O)[O-])c4)c23)C1 (stereo not given) | inactive
10 | CCC(C)(C)NC(=O)C(c1ccc(OC)cc1)N(Cc1ccco1)C(=O)CCC(=O)Nc1cc(C)on1 (stereo not given) | inconclusive: 35.5 µM [inhibitor, single point]
11 | CC(C)CC[n+]1ccccc1/C=C/c1ccc(N(C)C)cc1 | inconclusive: 4.47 µM [inhibitor, full curve, poor fit]
12 | CCC(=O)Nc1ccc2nc(SCCOc3ccccc3)sc2c1 | inactive
13 | CC1CC(C)CN(C(=O)c2ccc3c(=O)n(Cc4ccc5c(c4)OCO5)c(=S)[nH]c3c2)C1 (stereo not given) | inactive
14 | Cc1c(C(=O)NCc2cccnc2)oc2c1C(=O)CC(C)(C)C2 | inconclusive: 0.82 µM [activator, full curve]
15 | CCc1cccc2c(C(=O)CCl)c[nH]c12 | inactive
16 | COc1cc(S(=O)(=O)NCCCN2CCOCC2)ccc1Cl | inactive
17 | Cc1ccc(N2NC(C)(c3cccs3)NC2=S)cc1 (stereo not given) | inactive
18 | COc1cccc(S(=O)(=O)Nc2ccc(C(=O)Nc3ccncc3)cc2)c1 | inconclusive: 32.6 µM [inhibitor, single point]
19 | Cc1c(N=C/C=C2\N(C)c3ccccc3C2(C)C)c(=O)n(-c2ccccc2)n1C | inactive
20 | Cc1sc2ncnc(Nc3ccccc3)c2c1C | inactive
21 | Cc1ccc(C)c(N2CCN(C(=O)C3CCCN(S(=O)(=O)c4cccc5nsnc45)C3)CC2)c1 (stereo not given) | inconclusive: 35.5 µM [inhibitor, single point]
22 | CCCN(CCC)Cc1c(C(=O)N/N=C/c2ccco2)nnn1-c1nonc1N | inconclusive: 14.1 µM [inhibitor, single point]
23 | CCN(CC)CCCCCCCCOC(=O)c1cc(OC)c(OC)c(OC)c1 | inconclusive: 5.8 µM [inhibitor, full curve]
24 | c1ccc(-c2nc(C3CCCCC3)no2)cc1 | inconclusive: 11.2 µM [activator, partial curve]

Quoted from the listing.
Potency with c1ccc(-c2nc(C3CCCCC3)no2)cc1 reads inconclusive: 11.2 µM [activator, partial curve]
Potency with CCC(=O)Nc1ccc2nc(SCCOc3ccccc3)sc2c1 reads inactive

(cont.)

Row | Compound | Potency
25 | CSCCC(=O)Nc1ccc(C(C)=O)cc1 | inactive
26 | OCC1CCCN(C(=S)Nc2ccc(Oc3ccccc3)cc2)C1 (stereo not given) | inconclusive: 22.4 µM [inhibitor, single point]
27 | COc1cccc(CNC(=O)C(C(=O)NCc2cccc(OC)c2)c2ncc(C(F)(F)F)cc2Cl)c1 | inconclusive: 2.82 µM [inhibitor, partial curve, poor fit]
28 | Cc1ccc(S(=O)(=O)/N=C(/NC(=S)Nc2ccccc2)c2ccccc2)cc1 | inconclusive: 11.6 µM [activator, single point]
29 | COc1ccc(CN(C)c2ccc(S(=O)(=O)N3CCN(C)CC3)cc2[N+](=O)[O-])cc1OC | inconclusive: 14.1 µM [inhibitor, partial curve, poor fit]
30 | COc1ccc(OC)c(NC(=O)Cn2ccc3ccccc3c2=O)c1 | inactive
31 | CC1(C)N=C(SCC(=O)Nc2ccccc2)C(c2ccc(Cl)cc2)=N1 | inconclusive: 16.4 µM [inhibitor, single point]
32 | CCCCNC(=S)NNC(=O)c1ccncc1 | inactive
33 | COc1ccc(-n2nc(C(=O)Nc3ccc(C)cn3)c3c4ccccc4n(C)c3c2=O)cc1 | inconclusive: 12.6 µM [activator, partial curve, poor fit]
34 | CCOC(=O)Cn1nnnc1CN(CCc1ccccc1)Cc1cc2cc(CC)ccc2[nH]c1=O | inconclusive: 11.6 µM [inhibitor, partial curve]
35 | COc1ccc(C(=O)Oc2c(CN3CCOCC3)cc(Cl)c3cccnc23)cc1 | inactive
36 | CCCCSCCCNC(=O)c1cn(C)c2ccc(S(=O)(=O)N3CCCCC3)cc2c1=O | inactive
37 | CSc1nnc(NC(=O)c2nc(S(=O)(=O)Cc3ccccc3F)ncc2Cl)s1 | inconclusive: 35.5 µM [inhibitor, single point]
38 | COc1ccc(-n2ncc3c2CC(C)(C)CC3NC(=O)CCc2c(C)noc2C)cc1 (stereo not given) | inconclusive: 5.62 µM [activator, single point]
39 | O=C(NCCCN1CCOCC1)C(=O)N/N=C/c1c2ccccc2cc2ccccc12 | inconclusive: 11.2 µM [inhibitor, partial curve]
40 | Cc1ccc(-c2cnc(SCCNC(=O)c3ccco3)[nH]2)cc1 | inconclusive: 1.26 µM [inhibitor, partial curve, poor fit]
41 | COc1ccc(C(=O)NC(=S)N2CCOCC2)cc1Br | inactive
42 | O=C(NCCCCNC(=O)c1ccccc1F)c1ccccc1F | inactive
43 | COC(=O)C1=C(N)Oc2cc(N(C)C)ccc2C1c1ccccc1OC (stereo not given) | inconclusive: 23.1 µM [inhibitor, single point]
44 | CC(C(=O)OCC(=O)N1CCCCC1)N1C(=O)c2ccccc2C1=O (stereo not given) | inactive
45 | Cc1cc2cc(C(c3nnnn3Cc3ccco3)N3CCc4ccccc43)c(=O)[nH]c2cc1C (stereo not given) | inconclusive: 12.6 µM [inhibitor, partial curve, poor fit]
46 | O=C(NCC(c1ccco1)N1CCCCC1)c1ccc(COc2ccc(Cl)cc2)cc1 (stereo not given) | active: 10 µM
47 | COc1cc(/C=C/C(=O)O)cc(S(=O)(=O)NCC2CCCO2)c1OC (stereo not given) | inconclusive: 12.6 µM [activator, single point]
48 | Cc1ccc(CN2CCN(C3CCN(C(=O)c4ccccc4)CC3)C(=O)C2=O)cc1 | inactive

Row | Compound | Potency
49 | O=C(N/N=C/c1c(F)cccc1Cl)C(=O)N1CCCCCC1 | inconclusive: 5.62 µM [activator, partial curve, poor fit]
50 | COc1ccc(C)cc1NC(=O)Cn1c(=O)cc(C)c2c(C)nn(C)c21 | inconclusive: 5.62 µM [inhibitor, full curve, poor fit]
51 | C/C(=N\NC(=O)c1cccnc1)c1c(O)cc(C)oc1=O | inactive
52 | Cc1nc(-c2ccc(Cl)cc2)sc1CCNC(=O)Cc1ccc(F)cc1 | inconclusive: 14.1 µM [inhibitor, single point]
53 | CC(=CC[Si](C)(C)C)CCC=O | inconclusive: 6.68 µM [inhibitor, single point]
54 | O=S(=O)(c1ccccc1)c1nc(-c2ccc(Cl)cc2Cl)oc1N1CCCCC1 | inconclusive: 35.5 µM [inhibitor, single point]
55 | Cc1ccc(C)c2[nH]c(=O)c(CN(Cc3nnnn3C3CCCCC3)CC3CCCO3)cc12 (stereo not given) | inconclusive: 8.2 µM [inhibitor, partial curve, poor fit]
56 | Oc1[nH]c2ccccc2c1N=NC(=S)NCCc1ccccc1 | inconclusive: 14.1 µM [inhibitor, partial curve, poor fit]
57 | Cc1ccc(-c2nc(N/N=C/c3ccncc3)c3ccccc3n2)cc1 | inconclusive: 4.61 µM [inhibitor, partial curve, poor fit]
58 | O=C(c1ccccc1)N1CCN(C(=O)c2nn3c(C(F)(F)F)cc(-c4ccco4)nc3c2Br)CC1 | inconclusive: 17.8 µM [inhibitor, partial curve, poor fit]
59 | COc1ccc2c(c1)CCC1=C2NC(=S)NC1c1ccc(N(C)C)cc1 (stereo not given) | inconclusive: 11.2 µM [inhibitor, partial curve, poor fit]
60 | COc1ccc(CNS(=O)(=O)c2cccc(S(=O)(=O)N3CCOCC3)c2)cc1 | inconclusive: 2.91 µM [activator, single point]
61 | COc1cc(OC)c(C(=O)C=Cc2ccc(OC)c(OC)c2)c(OC)c1 | inconclusive: 1.12 µM [inhibitor, partial curve, poor fit]
62 | Cc1cccc2cc(CN(CCN(C)C)C(=S)Nc3ccccc3)c(=O)[nH]c12 | inactive
63 | Cc1cc(NC(=O)c2cccs2)ncc1NC(=O)C(C)(C)C | inconclusive: 8.91 µM [inhibitor, partial curve, poor fit]
64 | Cc1ccc(CSc2oc(-c3ccco3)nc2S(=O)(=O)c2ccc(C)cc2)cc1 | inconclusive: 12.6 µM [inhibitor, partial curve, poor fit]
65 | CCOc1ccc(N(CC(=O)NCc2ccc(Cl)cc2)S(=O)(=O)c2ccccc2)cc1 | inconclusive: 6.31 µM [inhibitor, partial curve, poor fit]
66 | CN(CC(=O)N1CCc2ccccc21)S(=O)(=O)c1cccs1 | inconclusive: 0.794 µM [activator, full curve]
67 | COc1ccccc1N1CN(Cc2ccccc2)CNC1=S | inconclusive: 35.5 µM [activator, partial curve, poor fit]
68 | CCSc1nc2ccccc2n1Cc1ccccc1F | inactive
69 | O=C(Nc1ccc(N=Nc2ccccc2)cc1)c1cccc(Cl)c1 | inactive
70 | CCCN(CCC)C(=O)Cn1c(=O)n(-c2ccccc2)c(=O)c2c3c(sc21)CCCC3 | inconclusive: 11.2 µM [inhibitor, partial curve, poor fit]

2 entries from above, with each value named:
Cc1ccc(CN2CCN(C3CCN(C(=O)c4ccccc4)CC3)C(=O)C2=O)cc1
  Potency: inactive
O=C(N/N=C/c1c(F)cccc1Cl)C(=O)N1CCCCCC1
  Potency: inconclusive: 5.62 µM [activator, partial curve, poor fit]
